The test deals with RET, endogenous in human skin organoids (human (endogenous in human skin organoids)). Nature of the test: proximity ligation.

No constants are given. Whether binding was seen depends on the method and setting. Binding seen in cells or lysates may run through a third protein. Binding can be weak; no strength is given.

B1: Siah1, endogenous in human skin organoids (enzyme, UniProt Q8IUQ4 1-282)
chain: MSRQTATALPTGTSKCPPSQRVPALTGTTASNNDLASLFECPVCFDYVLPPILQCQSGHLVCSNCRPKLTCCPTCRGPLGSIRNLAMEKVANSVLFPCKYASSGCEITLPHTEKADHEELCEFRPYSCPCPGASCKWQGSLDAVMPHLMHQHKSITTLQGEDIVFLATDINLPGAVDWVMMQSCFGFHFMLVLEKQEKYDGHQQFFAIVQLIGTRKQAENFAYRLELNGHRRRLTWEATPRSIHEGIATAIMNSDCLVFDTSIAQLFAENGNLGINVTISMC
Take B1: the binding result is “binds”.

The values above are taken from publication doi:10.1101/2022.01.19.476979 (bioRxiv, 2022).
